# According to PubChem BioAssay AID493014 (National Center for Advancing Translational Sciences (NCATS), 2011):
# The whole screen tested about 340,000 compounds, of which about 170 (0.05%) were called active. The inconclusive results got no clear call from the source; some entries with a clear call stand among them for comparison. Calls follow the shape of the dose curve; as a rule, active = well fitted inhibition curve with a large enough effect in the signal ratio, with a control signal flat (not every such curve was filed as active); inconclusive = small, poorly fitted or top-dose-only effect, or effect the other way, or a change in a side signal; inactive = flat fitted curve, though single readings scatter; the % refers to the signal ratio. Where the call is inconclusive, the potency comes from a doubtful curve fit.
# Test: qHTS Assay to Find Inhibitors of Chronic Active B-Cell Receptor Signaling;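 as to activity change, negative = inhibition: plate controls were basal doxycycline-induced cells for no effect and cells given 10 µM MG132 for full effect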
# Conditions: ABC-DLBCL IkBa-CBG/CBR reporter, luminescence ratio (green luciferase fused to IkBa over red control in TMD8 lymphoma cells), 4 h; activity change, negative = inhibition: at 46.1 µM (top of the series)
# Summary of the method: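 Doxycycline induced both beetle luciferases in TMD8 lymphoma cells; IKK-driven degradation limits the IkappaBalpha-fused green signal, while red luminescence normalises for cell number and nonspecific effects. Compounds tested up to 46 uM, 4 hrs.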
# Potency is read from the fitted curve at half-maximal effect.
SMILES,Potency,"activity change, negative = inhibition"
CCOC(=O)c1c(C)[nH]c(C(=O)N2CCc3cc(OC)c(OC)cc3C2)c1C,"inconclusive: 0.259 µM [falling, full curve, poor fit]",
C/C(CC(=O)Nc1ccc(Br)cc1)=N\NC(=O)Cc1csc(N)n1,"inconclusive: 35.5 µM [falling, single point]",
O=C(Nc1cccc(F)c1)Nc1ccc2c(c1)OCO2,,inconclusive: -16.3%
Cc1ccc(C(=O)N(Cc2nc3ccccc3c(=O)[nH]2)C2CCCC2)cc1,,inconclusive: -19.5%
Oc1c(Cl)cc(Cl)cc1/C=N/NC(=S)NC1CC2C=CC1C2 (centres undefined),"inconclusive: 22.4 µM [falling, single point]",
O=C(Nc1ccc(Br)cc1)c1cccc(S(=O)(=O)Nc2ccccn2)c1,,inconclusive: 0.369%
CCCc1sc(N/N=C/c2ccccn2)nc1-c1ccc(Br)cc1,,inconclusive: 23.7%
CC(C)OCCCNC(=O)NC(=O)c1ccc(Cl)cc1,,inactive
C#CCOc1c(Cl)cc(/C=C2/C(=O)ON=C2C)cc1OCC,,inactive
O=C(CCc1ccccc1)NCC(c1ccco1)N1CCc2ccccc21 (centres undefined),"inconclusive: 29.1 µM [falling, single point]",
Cc1ccnc(N2CCC(C(=O)Nc3cccc(C(F)(F)F)c3)CC2)n1,,inconclusive: -12.3%
O=C(NC(=S)Nc1cccnc1Cl)c1ccco1,"inconclusive: 35.5 µM [falling, single point]",
Cc1ccc(Nc2nc3c([nH]2)c(=O)[nH]c(=O)n3C)cc1,,inconclusive: 6.96%
COCc1cc(C)nc2sc(C(=O)NN)c(-n3cccc3)c12,"inconclusive: 5.62 µM [falling, partial curve, poor fit]",
Cc1oc2c(C)c3oc(=O)c4c(c3cc2c1C)CCCC4,,inconclusive: 5.02%
O=C(CSCc1ccc(F)cc1)N1CCN(c2ccccc2)CC1,"inconclusive: 8.91 µM [rising, partial curve, poor fit]",inconclusive: 10.1%
CCCCC(=O)O[C@]1(C(=O)CO)CC[C@H]2[C@@H]3CCC4=CC(=O)CC[C@]4(C)[C@H]3[C@@H](O)C[C@@]21C,"inconclusive: 35.5 µM [falling, partial curve, poor fit]",
OCCNC(=S)c1ccccc1,,inactive
CC(=O)c1ccc(N2CCN(c3ccc(S(=O)(=O)NCCCN(C)C)cc3[N+](=O)[O-])CC2)cc1,,inconclusive: -7.1%
CC(C)OC(=O)c1cc(=O)[nH]c2ccccc12,,inconclusive: 6.9%
Cc1ccc(NC(=O)CSc2ncc3ccccn23)cc1,,inconclusive: 1.51%
CCOC(=O)C1CCN(C(=O)COC(=O)c2cc([N+](=O)[O-])ccc2N2CCOCC2)CC1,,inconclusive: -0.915%
O=C1C(Cl)=C(NC(=O)c2ccccc2)C(=O)C(Cl)=C1NC(=O)c1ccccc1,"inconclusive: 3.55 µM [cytotoxic, partial curve, poor fit]",
COc1ccccc1N1CCN(S(=O)(=O)c2c(C)[nH]c(=O)[nH]c2=O)CC1,,inactive

SMILES,Potency,"activity change, negative = inhibition"
Cc1ccc(-n2nc3cc(Cl)c(NC(=O)c4ccco4)cc3n2)cc1,,inconclusive: 29%
O=C(OCc1cc(=O)n2ccsc2n1)c1ccccc1O,"inconclusive: 29.1 µM [falling, single point]",
COc1cc(-c2cc(C(=O)OCC(=O)NC3CC3)c3ccccc3n2)cc(OC)c1OC,,inactive
CC(C)CCn1c(N)c(S(=O)(=O)c2cccs2)c2nc3ccccc3nc21,,inconclusive: 14.4%
CCCC(=O)NCCc1cc2ccc(OC)cc2[nH]c1=O,"inconclusive: 32.6 µM [falling, partial curve, poor fit]",
CCOC(=O)CSc1nnc(-c2c[nH]c3ccccc23)o1,"inconclusive: 35.5 µM [falling, single point]",
CC(C)Cc1cc(C(=O)Nc2cccnc2)no1,"inconclusive: 16.4 µM [falling, partial curve]",
Cc1c(C(=O)CN2CCSCC2)c2ccccc2n1C,,inconclusive: -0.121%
CC(N=C(NS(=O)(=O)c1ccc(Cl)cc1)c1ccccc1)C(=O)O (centres undefined),,inconclusive: -11.1%
CCc1ccccc1-n1c(SCC(=O)NC)nnc1-c1ccco1,,inactive
CCc1nnc(NC(=O)CSc2nc3c(C)cccc3[nH]2)s1,"inconclusive: 32.6 µM [falling, partial curve, poor fit]",
CCCC(C)C(=O)Nc1nc(C)c(-c2csc(Nc3ccccc3OC)n2)s1 (centres undefined),,inactive
COc1ccccc1/C=N/NC(=O)CCn1cnc2ccccc21,,inconclusive: -8.66%
O=C(c1ccccc1)C1CCN(c2ncccc2[N+](=O)[O-])CC1,,inconclusive: 8.2%
CCN(CC)CCCN(Cc1cc2cc(OC)ccc2[nH]c1=O)C(=O)Nc1ccc(F)cc1,"inconclusive: 29.1 µM [falling, single point]",
CCOC(=O)c1cc(NC(=O)Nc2ccccn2)c(C)nc1C,"inconclusive: 0.708 µM [rising, full curve, poor fit]",
O=C(N/N=C/c1ccsc1)c1c[nH]c2ccccc12,"inconclusive: 35.5 µM [rising, single point]",
CC(C)CCc1noc(CN2CCC(CCN3CCCC3=O)CC2)n1,,inconclusive: 0.3%
Cn1c(/C=C/c2ccc(Br)cc2)c([N+](=O)[O-])c(=O)n(C)c1=O,"inconclusive: 15.8 µM [falling, partial curve]",
O=S(=O)(NCC(Nc1ccccc1)c1ccccc1)c1ccc(Cl)cc1 (centres undefined),,inconclusive: -14.7%
CCCCCCCCCn1c2c(c(=N)c3c1CCC3)CCCC2,"inconclusive: 31.6 µM [rising, single point]",
COc1ccc(CCN(C(=O)C(F)(F)F)C(C(=O)NC2CCCC2)c2cccs2)cc1 (centres undefined),,inactive
CCCc1nnc(NC(=O)c2ccc([N+](=O)[O-])cc2)s1,"inconclusive: 6.51 µM [falling, partial curve]",
CC(C)c1ccc(C2=CC(c3cccc(Cl)c3)n3ncnc3N2)cc1 (centres undefined),"inconclusive: 35.5 µM [falling, single point]",

# Three entries from above, tab-delimited.
SMILES	Potency	activity change, negative = inhibition
CC(C)CCn1c(N)c(S(=O)(=O)c2cccs2)c2nc3ccccc3nc21		inconclusive: 14.4%
CC(N=C(NS(=O)(=O)c1ccc(Cl)cc1)c1ccccc1)C(=O)O (centres undefined)		inconclusive: -11.1%
O=C(N/N=C/c1ccsc1)c1c[nH]c2ccccc12	inconclusive: 35.5 µM [rising, single point]	
